{
  "sequences": {"note": "Chains of the proteins cited; added tags and fusions are not shown. Lines headed by an entry give the natural chain unless they say otherwise; changes in a name come on top.", "UniProt P05231": "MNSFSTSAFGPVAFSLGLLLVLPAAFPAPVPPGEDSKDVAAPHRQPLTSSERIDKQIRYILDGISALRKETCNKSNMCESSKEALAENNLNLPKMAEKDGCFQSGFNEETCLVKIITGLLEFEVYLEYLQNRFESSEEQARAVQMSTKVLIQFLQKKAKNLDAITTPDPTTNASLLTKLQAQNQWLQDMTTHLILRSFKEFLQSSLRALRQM"},
  "source": "patent US20160130340A1",
  "about": "(ALDERBIO, published 2016)",
  "binders": {"B1": {"name": "Ab7 (antibody, V domains shown)", "VH": "QSLEESGGRLVTPGTPLTLTCTASGFSLSNYYMTWVRQAPGKGLEWIGMIYGSDETAYANWAIGRFTISKTSTTVDLKMTSLTAADTATYFCARDDSSDWDAKFNLWGQGTLVTVSS", "VL": "AYDMTQTPASVSAAVGGTVTIKCQASQSINNELSWYQQKSGQRPKLLIYRASTLASGVSSRFKGSGSGTEFTLTISDLECADAATYYCQQGYSLRNIDNAFGGGTEVVVKR"}},
  "molecular_target": "Human IL-6 (human, UniProt P05231 30-212)",
  "experiment": "Octet bio-layer interferometry; antibody captured on anti-human IgG Fc sensor, then IL-6, then soluble IL-6R1, then gp130 in the presence of IL-6R1; blocked ligands: IL-6R1 and gp130",
  "procedure": "To determine the antibody mechanism of action, mechanistic studies were performed using bio-layer interferometry with an Octet QK instrument (ForteBio; Menlo Park, Calif.). Studies were performed in two different configurations. […] Binding is monitored as an increase in signal.\nIn the second orientation, the antibody was bound to a biosensor coated with an anti-human IgG1 Fc-specific reagent (ForteBio part number 18-5001). […] All studies were performed in a 200 μL final volume, at 30° C. and 1000 rpm. For these studies, all proteins were diluted using ForteBio's sample diluent buffer (part number 18-5028).",
  "note": "No constants are given. Whether binding was seen depends on the method and setting. Some results given as binding are weak or reduced against the parent protein; the word gives no strength.",
  "data": [
    {"binder": "B1", "values": [
      {"measurement": "binding", "result": "binds"}
    ]}
  ]
}
